Measurements taken from PMC7960600, “A DARPin targeting activated Mac-1 is a novel diagnostic tool and potential anti-inflammatory agent in myocarditis, sepsis and myocardial infarction” (Basic Research in Cardiology, 2021).
No constants are given. Whether binding was seen depends on the method and setting. Some binding calls cover weakened binding; strength is not graded here.

Chains of the proteins cited; added tags and fusions are not shown. Lines headed by an entry give the natural chain unless they say otherwise; changes in a name come on top. Residues count along the entry.
UniProt P05555: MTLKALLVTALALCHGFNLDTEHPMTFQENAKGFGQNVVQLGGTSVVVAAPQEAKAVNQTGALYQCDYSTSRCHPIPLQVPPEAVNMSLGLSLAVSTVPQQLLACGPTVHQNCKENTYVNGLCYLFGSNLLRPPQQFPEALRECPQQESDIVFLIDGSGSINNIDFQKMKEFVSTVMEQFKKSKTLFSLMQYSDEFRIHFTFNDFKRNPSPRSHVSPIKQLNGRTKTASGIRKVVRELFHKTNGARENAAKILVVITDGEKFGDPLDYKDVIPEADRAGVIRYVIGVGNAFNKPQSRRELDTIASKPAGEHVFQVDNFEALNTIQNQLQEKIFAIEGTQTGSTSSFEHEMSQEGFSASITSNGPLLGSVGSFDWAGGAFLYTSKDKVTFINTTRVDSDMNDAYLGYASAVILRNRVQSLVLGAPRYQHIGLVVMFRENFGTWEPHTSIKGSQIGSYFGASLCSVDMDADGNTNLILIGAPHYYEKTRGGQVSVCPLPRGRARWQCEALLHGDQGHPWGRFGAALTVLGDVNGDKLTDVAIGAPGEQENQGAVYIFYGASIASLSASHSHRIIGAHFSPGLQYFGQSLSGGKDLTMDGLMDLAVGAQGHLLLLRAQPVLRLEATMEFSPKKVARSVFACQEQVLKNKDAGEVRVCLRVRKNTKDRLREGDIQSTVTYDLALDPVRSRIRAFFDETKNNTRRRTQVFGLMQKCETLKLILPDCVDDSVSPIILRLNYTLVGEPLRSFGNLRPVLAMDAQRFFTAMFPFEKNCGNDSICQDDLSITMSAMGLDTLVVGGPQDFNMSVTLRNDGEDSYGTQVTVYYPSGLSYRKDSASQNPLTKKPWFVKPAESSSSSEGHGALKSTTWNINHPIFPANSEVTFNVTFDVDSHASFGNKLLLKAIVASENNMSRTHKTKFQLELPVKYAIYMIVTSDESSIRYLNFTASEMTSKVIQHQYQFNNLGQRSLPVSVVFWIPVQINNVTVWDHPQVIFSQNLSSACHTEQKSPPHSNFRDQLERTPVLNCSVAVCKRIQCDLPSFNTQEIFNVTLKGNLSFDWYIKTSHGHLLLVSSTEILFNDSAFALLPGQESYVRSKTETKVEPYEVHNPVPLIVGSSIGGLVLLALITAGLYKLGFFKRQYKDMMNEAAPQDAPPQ
UniProt P11835: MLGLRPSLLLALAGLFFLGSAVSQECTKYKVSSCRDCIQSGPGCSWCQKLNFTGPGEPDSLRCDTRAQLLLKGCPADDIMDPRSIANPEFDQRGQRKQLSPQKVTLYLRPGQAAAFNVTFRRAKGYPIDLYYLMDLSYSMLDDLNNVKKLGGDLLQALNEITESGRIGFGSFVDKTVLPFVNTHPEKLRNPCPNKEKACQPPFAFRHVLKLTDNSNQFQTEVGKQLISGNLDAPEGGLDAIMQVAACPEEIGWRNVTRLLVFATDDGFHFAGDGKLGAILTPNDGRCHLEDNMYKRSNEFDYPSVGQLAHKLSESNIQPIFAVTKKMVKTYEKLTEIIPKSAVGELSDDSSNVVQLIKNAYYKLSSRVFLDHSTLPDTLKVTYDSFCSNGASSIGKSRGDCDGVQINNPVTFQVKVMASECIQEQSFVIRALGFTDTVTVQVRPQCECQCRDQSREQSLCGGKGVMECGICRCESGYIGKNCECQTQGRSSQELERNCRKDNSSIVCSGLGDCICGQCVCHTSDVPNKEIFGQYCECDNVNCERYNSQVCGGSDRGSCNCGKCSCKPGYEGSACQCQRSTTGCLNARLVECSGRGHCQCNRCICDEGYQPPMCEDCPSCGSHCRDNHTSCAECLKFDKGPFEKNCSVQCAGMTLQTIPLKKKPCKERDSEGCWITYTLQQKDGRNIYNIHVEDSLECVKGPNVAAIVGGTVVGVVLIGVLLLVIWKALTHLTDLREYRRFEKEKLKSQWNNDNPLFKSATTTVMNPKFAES
UniProt P13597, residues 28-485: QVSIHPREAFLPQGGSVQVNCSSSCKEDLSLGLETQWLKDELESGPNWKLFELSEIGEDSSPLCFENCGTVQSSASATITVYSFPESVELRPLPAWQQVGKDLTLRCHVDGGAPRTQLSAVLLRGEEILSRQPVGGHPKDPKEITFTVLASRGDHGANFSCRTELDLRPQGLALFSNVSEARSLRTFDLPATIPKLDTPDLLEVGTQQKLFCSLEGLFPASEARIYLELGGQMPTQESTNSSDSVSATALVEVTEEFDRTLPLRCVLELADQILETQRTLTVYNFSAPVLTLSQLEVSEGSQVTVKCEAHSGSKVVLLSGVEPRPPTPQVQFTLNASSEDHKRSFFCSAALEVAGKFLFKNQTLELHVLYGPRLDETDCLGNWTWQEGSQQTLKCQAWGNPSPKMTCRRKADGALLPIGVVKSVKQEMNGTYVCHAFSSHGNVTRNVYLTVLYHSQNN

Target: mouse Mac-1 (αMβ2, CD11b/CD18) on mouse monocytes (mouse (endogenous in RAW 264.7 cells and mouse monocytes)) (UniProt P05555+P11835)
Assay: flow cytometry on cells; monocytes isolated from C57BL/6N mice, stimulated with PMA (10 ng/ml), stained with F7, control DARPin (5 µg/ml) or PBS, then incubated with rICAM (15 min, RT); FITC anti-ICAM-1 antibody; only the binder purified

binding: binds
Substance: recombinant ICAM-1 (rICAM; Biolegend) (from UniProt P13597 28-485) (ligand)
